Data taken from US20120315256A1, “USE OF TRANSFORMING GROWTH FACTOR - BETA 1 (TGF-B1) INHIBITOR PEPTIDES FOR THE TREATMENT OF CORNEAL FIBROSIS AND/OR HAZE” (DIGNA BIOTECH, S.I., priority 2010, published 2012).
At least one compound was matched to its structure with a doubt left.

Test system: Long-Evans rats
Assay: Corneal damage with 1 N NaOH in rats: weekly follow-up of corneal haze and epithelial closure (photographs, ImageJ)
Format: in vivo, rat
Conditions: first experiment, Group 1
Source text: In this study, domestic hens (Gallus gallus domesticus) aged between 12 and 16 months were initially used as experimental animals but due to the difficulty of the model, especially in relation to obtaining and handling the animals, it was decided to use Long-Evans rats. Furthermore, it was bibliographically verified that these animals are used for in vivo models for studying corneal fibrosis because they allow to follow the evolution of the damage with more precision since they are pigmented rats and, like humans, have a Bowman's membrane. […]

## C[C@@H]1C[C@H]2[C@@H]3CCC4=CC(=O)C=C[C@]4(C)[C@@]3(F)[C@@H](O)C[C@]2(C)[C@@]1(O)C(=O)CO [dexamethasone, reference compound]
  clinical efficacy of drugs usually used in the treatment of corneal fibrosis: correspond to those described in the scientific literature
